{"source": "PubChem BioAssay AID1487", "about": "(National Center for Advancing Translational Sciences (NCATS), 2009)", "experiment": "qHTS Assay for Modulators of Lamin A Splicing", "conditions": "HeLa LMNA splicing GFP/RFP minigene ratio, 48 h", "method_in_brief": "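S3 HeLa cells stably expressing lamin A-EGFP splicing minigene plus DsRed2, 600 cells/well, 48 h compound exposure at 37C. Laser-scanning cytometry; analysed as GFP (500-530 nm)/RFP (575-640 nm) total intensity ratio; 0.5% DMSO vehicle.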", "key": {"[1]": {"conditions": "measured here: GFP splicing reporter channel"}, "[2]": {"conditions": "measured here: RFP viability control channel"}}, "note": "Some of the results follow. The main result of the screen is listed elsewhere. These columns were measured beside it and carry no call. The list favours compounds with an active or inconclusive main result. The note in brackets gives the kind of curve behind each potency; many fits are weak."}
{"compound": "Cc1ccc(-n2c(O)c(C=NCCN(C)C)c(=O)[nH]c2=O)cc1", "values": [{"measurement": "AC50", "setting": "[1]", "value": "0.0282 µM [falling, full curve, poor fit]"}, {"measurement": "AC50", "setting": "[2]", "value": "0.0316 µM [falling, full curve, poor fit]"}]}
{"compound": "CC1Cc2cc3c(cc2C(c2ccc(N)cc2)=NN1)OCO3", "note": "(stereo not given)", "values": [{"measurement": "AC50", "setting": "[2]", "value": "5.62 µM [falling, partial curve, poor fit]"}]}
{"compound": "C[N+](C)(C)CC#CCN1CCCC1=O", "values": [{"measurement": "AC50", "setting": "[2]", "value": "20 µM [falling, single point]"}]}
{"compound": "CCN1C[C@]2(C)CC[C@H](O)[C@@]34[C@@H]5C[C@@H]6[C@@H](OC)C[C@@](O)(C5[C@H]6O)[C@@H](C[C@@H]23)[C@@H]14", "values": [{"measurement": "AC50", "setting": "[1]", "value": "5.62 µM [falling, partial curve, poor fit]"}]}
{"compound": "Cc1ccc2nc(N3CCC(C(=O)N4CCC5(CC4)OCCO5)CC3)sc2c1", "values": [{"measurement": "AC50", "setting": "[1]", "value": "12.6 µM [rising, partial curve]"}, {"measurement": "AC50", "setting": "[2]", "value": "17.8 µM [rising, partial curve]"}]}
{"compound": "NC(=O)c1ccc(OCC(O)CN2CC=C(c3ccc(F)cc3)CC2)cc1", "note": "(stereo not given)", "values": [{"measurement": "AC50", "setting": "[1]", "value": "0.00501 µM [falling, full curve, poor fit]"}]}
{"compound": "O=C(COc1ccc(Cl)cc1)N1CCN(C/C=C/c2ccccc2)CC1", "values": [{"measurement": "AC50", "setting": "[2]", "value": "15.8 µM [rising, single point]"}]}
{"compound": "Clc1ccccc1Cl", "values": [{"measurement": "AC50", "setting": "[2]", "value": "5.62 µM [rising, single point]"}]}
{"compound": "CSc1ccc(/C=C/c2nc3ccccc3c(=O)n2-c2cccc(Cl)c2C)cc1", "values": [{"measurement": "AC50", "setting": "[2]", "value": "20 µM [rising, single point]"}]}
{"compound": "C[n+]1c2cc(N)ccc2cc2ccc(N)cc21", "values": [{"measurement": "AC50", "setting": "[1]", "value": "3.98 µM [rising, partial curve]"}, {"measurement": "AC50", "setting": "[2]", "value": "17.8 µM [falling, partial curve]"}]}
{"compound": "CC1(C)C(=O)C=C[C@]2(C)[C@H]3CC[C@@]4(C)[C@H](c5ccoc5)OC(=O)[C@H]5O[C@]54[C@]3(C)[C@H](O)C[C@@H]12", "values": [{"measurement": "AC50", "setting": "[2]", "value": "17.8 µM [rising, single point]"}]}
{"compound": "Fc1ccc(Cn2nnnc2C(c2ccc(F)cc2)N2CC=C(c3ccc(F)cc3)CC2)cc1", "note": "(stereo not given)", "values": [{"measurement": "AC50", "setting": "[2]", "value": "1.78 µM [rising, partial curve, poor fit]"}]}
{"compound": "CCCCCn1c(=O)c(C(=O)Nc2cnccn2)c(O)c2ccccc21", "values": [{"measurement": "AC50", "setting": "[2]", "value": "5.62 µM [rising, single point]"}]}
{"compound": "O=C1NC(=O)N(c2ccccc2)C(=O)/C1=C/c1ccc(Sc2ccccc2)o1", "values": [{"measurement": "AC50", "setting": "[1]", "value": "15.8 µM [rising, partial curve]"}, {"measurement": "AC50", "setting": "[2]", "value": "5.01 µM [rising, full curve]"}]}
{"compound": "CCc1ccc(-n2nc(C)c3c(C(=O)NCCc4ccc(OC)c(OC)c4)cc(C)nc32)cc1", "values": [{"measurement": "AC50", "setting": "[1]", "value": "12.6 µM [falling, partial curve, poor fit]"}, {"measurement": "AC50", "setting": "[2]", "value": "0.398 µM [falling, partial curve, poor fit]"}]}
